Values of other authors as cited in US20070198063A1, “Electrical devices and anti-scarring drug combinations” (priority 2005, published 2007).

Key:
[1] = steroid combined with a subtherapeutic dose of an azole; steroid at 5 mg/day with 100 mg ketoconazole; cited from earlier work
[2] = 200 mg/day orally; cited from earlier work

SMILES: CC(=O)N1CCN(c2ccc(OC[C@@H]3CO[C@@](Cn4ccnc4)(c4ccc(Cl)cc4Cl)O3)cc2)CC1 (racemic) [ketoconazole]
- enhancement of the steroid activity / potency [1]: 10 fold
- serum concentration [2]: about 3.2 micrograms
